# Measurements reported in PubChem BioAssay AID686937 (Drosophila RNAi Screening Center, 2013).
# Aim: 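Genes whose loss weakens secretory pathway function in fly cells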 (primary screen)
# Cells: Drosophila S2 cells expressing secreted horseradish peroxidase
# Reagent: long dsRNA against Drosophila genes
# Time to read-out: about 5.5 days (5 days dsRNA, then 12 h reporter induction)
# Conditions: reporter expression induced after 5 days of dsRNA, read 12 h later; inducer not stated
# Measurement: 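Chemiluminescent measurement of peroxidase in the medium 12 h after reporter induction, following 5 days of dsRNA, given as a z-score per plate; higher means more secretion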
# Scale: z-score: higher = more reporter secreted into medium
# The deposit covers about 23,000 reagents; shown is a random part of those that have a named target and a result. 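Reduced-secretion tags in replicate 1 do not always agree with the z-scores; no criterion for assigning the tags was given.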 Names joined by + are all predicted targets of the reagent. Reagent sequences are not shown. Not stated in the record: the amount of reagent.
target gene,amplicon,"z-score, replicate 1","z-score, replicate 2","z-score, replicate 3","z-score, replicate 4","phenotype, replicate 1"
CG18480,DRSC01957,0.22,0.35,,,
Rpt3R (Regulatory particle triple-A ATPase 3-related),DRSC16501,-2.02,-3.09,,,reduced secretion
"Lamtor1 (Late endosomal/lysosomal adaptor, MAPK and MTOR activator 1)",DRSC10183,-0.31,-0.1,,,
Asx (Additional sex combs),DRSC05924,-1.25,-1.33,,,
srw (shrew),DRSC08201,0.26,0.03,,,
mRpS34 (mitochondrial ribosomal protein S34),DRSC09918,-0.23,0.17,,,
CG31099,DRSC14252,0.39,0.31,,,
strat (stratum),DRSC03069,0.42,0.59,,,
Phae2 (Phaedra 2),DRSC02555,0.17,-0.13,,,
CG8072,DRSC10960,0.38,0.32,,,
Sox14 (Sox box protein 14),DRSC04656,0.52,0.53,,,
CG31709,DRSC01081,0.27,0.42,,,
CG15756,DRSC19721,0.01,-0.26,,,
CG18568,DRSC06768,0.56,0.51,,,
hmw (hemingway),DRSC16277,0.09,0.29,,,
CG30268,DRSC21983,0.71,0.14,,,
CG1271,DRSC08290,0.5,0.2,,,
srl (spargel),DRSC12340,0.31,0.48,,,
Obp19d (Odorant-binding protein 19d),DRSC20569,0.1,0.29,,,
Ets97D (Ets at 97D),DRSC16665,0.12,0.29,,,
CG1421,DRSC03707,-0.05,0.26,,,
CG13053,DRSC09934,0.01,0.02,,,
CG32228,DRSC22296,-0.88,-0.2,,,
Scsalpha1 (Succinyl-coenzyme A synthetase alpha subunit 1),DRSC08698,0.24,0.42,,,
RpLP0-like (Ribosomal protein LP0-like),DRSC06424,0.33,0.34,,,
CG31220,DRSC22248,0.13,0.24,,,
CR18275 + CG13373,DRSC17900,0.4,0.19,,,
Ald1 (Aldolase 1),DRSC14109,-1.7,-1.5,,,reduced secretion
TTLL4B (Tubulin tyrosine ligase-like 4B),DRSC00636,0.15,0.28,,,
CG10904,DRSC04084,0.42,0.42,,,

4 successive entries already listed, for reference:
target gene,amplicon,"z-score, replicate 1","z-score, replicate 2","z-score, replicate 3","z-score, replicate 4","phenotype, replicate 1"
CG8072,DRSC10960,0.38,0.32,,,
Sox14 (Sox box protein 14),DRSC04656,0.52,0.53,,,
CG31709,DRSC01081,0.27,0.42,,,
CG15756,DRSC19721,0.01,-0.26,,,

More results:
target gene,amplicon,"z-score, replicate 1","z-score, replicate 2","z-score, replicate 3","z-score, replicate 4","phenotype, replicate 1"
UQCR-14L (Ubiquinol-cytochrome c reductase 14 kDa subunit-like),DRSC15288,0.48,0.63,,,
UQCR-14L (Ubiquinol-cytochrome c reductase 14 kDa subunit-like),DRSC22425,-0.46,0.24,,,
Dnz1 (DNZDHHC/NEW1 zinc finger protein 11),DRSC03317,0.31,0.2,,,
CG3907,DRSC04432,0.33,-0.2,,,
CG13924,DRSC08393,0.4,0.33,,,
RPA1 (Replication protein A1),DRSC16830,0.18,-0.03,,,
CG13380 + CG4174,DRSC09988,0.41,0.33,,,
CG13380 + CG4174,DRSC10406,-0.08,0.25,,,
"Gorab (Golgin, RAB6 interacting)",DRSC10383,0.28,0.48,,,
Pcl (Polycomblike),DRSC07503,-0.73,-1.29,,,
CG31807,DRSC01550,-0.04,0.52,,,
Hsp27 (Heat shock protein 27),DRSC11190,0.36,0.17,,,
CCHa2-R (CCHamide-2 receptor),DRSC04825,-1.21,,,,
CCHa2-R (CCHamide-2 receptor),DRSC04870,0.34,0.27,,,
CCHa2-R (CCHamide-2 receptor),DRSC04871,0.4,0.32,,,
eco (Establishment of cohesion),DRSC11006,-0.83,-1.02,,,
form3 (formin 3),DRSC10195,0.34,0.2,,,
form3 (formin 3),DRSC10297,-0.17,0.05,,,
form3 (formin 3),DRSC11024,0.51,0.39,,,
CG31141,DRSC13646,-0.68,0.09,,,
plh (pasang lhamu),DRSC12294,0.19,0.58,,,
Sas10 (Something about silencing 10),DRSC18355,0.26,-0.75,,,
CG15742,DRSC19708,0.44,0.48,,,
CG32333,DRSC08627,0.29,0.25,,,
CG32333,DRSC08629,0.14,0.28,,,
SKIP (Shal K[+] channel interacting protein),DRSC14713,0.18,-0.3,,,
SKIP (Shal K[+] channel interacting protein),DRSC14714,0.3,0.42,,,
SKIP (Shal K[+] channel interacting protein),DRSC15864,0.19,0.3,,,
SKIP (Shal K[+] channel interacting protein),DRSC16195,-0.17,0.29,0.2,0.03,
SKIP (Shal K[+] channel interacting protein),DRSC16196,0.3,0.26,0.48,0.17,
CG15545,DRSC15083,0.5,0.55,,,
CG9150,DRSC03148,0.22,0.04,,,
TMEM216 (Transmembrane protein 216),DRSC16378,0.24,0.33,,,
CG14893,DRSC15015,0.67,0.9,,,
CG34056,DRSC08374,0.47,0.52,,,
Yp1 (Yolk protein 1),DRSC18731,0.27,0.44,,,
CG4951,DRSC15682,0.39,0.57,,,
Irbp18 (Inverted repeat binding protein 18 kDa),DRSC10612,0.38,0.24,,,
CG14450,DRSC11707,0.49,0.3,,,
MrgBP (MRG/MORF4L binding protein),DRSC06417,-0.55,-1.03,,,
niki (nimA-like kinase),DRSC14285,0.35,-0.03,,,
CG43117,DRSC13767,0.48,0.8,,,
CG31638,DRSC02269,0.35,0.29,,,
CG31638,DRSC03259,0.55,0.48,,,
mRpL4 (mitochondrial ribosomal protein L4),DRSC03562,0.06,0.08,,,
Cpr78E (Cuticular protein 78E),DRSC11807,0.27,0.39,,,
Vha100-3 (Vacuolar H[+] ATPase 100kD subunit 3),DRSC05760,0.34,0.42,,,
CG14630,DRSC18166,0.37,0.38,,,
CG14630,DRSC18653,0.26,0,,,
l(2)k05819 (lethal (2) k05819),DRSC00826,0.38,0.39,,,
CG18088,DRSC02654,0.39,0.25,,,
TrpRS (Tryptophanyl-tRNA synthetase),DRSC14097,0.02,-0.39,,,
